This note sets out measurements from the supplement of paper PMC12819154, “High-throughput peptide-centric local stability assay extends protein–ligand identification to membrane proteins, tissues and bacteria” (Nature Structural & Molecular Biology, 2025).

Amino acid sequences for entries named in this document (tags omitted). A change or cut given only in a name is not applied to a line headed by its entry.
UniProt P84022, whole entry, looked up: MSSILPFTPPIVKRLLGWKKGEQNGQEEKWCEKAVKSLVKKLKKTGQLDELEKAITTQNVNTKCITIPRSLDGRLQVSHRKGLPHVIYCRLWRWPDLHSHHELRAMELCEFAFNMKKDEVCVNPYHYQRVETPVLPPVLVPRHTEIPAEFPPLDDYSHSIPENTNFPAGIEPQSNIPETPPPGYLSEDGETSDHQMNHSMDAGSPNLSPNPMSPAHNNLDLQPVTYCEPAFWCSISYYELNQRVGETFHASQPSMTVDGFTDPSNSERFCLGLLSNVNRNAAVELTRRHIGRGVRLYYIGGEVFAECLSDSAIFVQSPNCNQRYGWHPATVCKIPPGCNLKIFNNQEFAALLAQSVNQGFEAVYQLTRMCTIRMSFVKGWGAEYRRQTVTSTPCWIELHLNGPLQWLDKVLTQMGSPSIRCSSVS
UniProt Q0VDD7: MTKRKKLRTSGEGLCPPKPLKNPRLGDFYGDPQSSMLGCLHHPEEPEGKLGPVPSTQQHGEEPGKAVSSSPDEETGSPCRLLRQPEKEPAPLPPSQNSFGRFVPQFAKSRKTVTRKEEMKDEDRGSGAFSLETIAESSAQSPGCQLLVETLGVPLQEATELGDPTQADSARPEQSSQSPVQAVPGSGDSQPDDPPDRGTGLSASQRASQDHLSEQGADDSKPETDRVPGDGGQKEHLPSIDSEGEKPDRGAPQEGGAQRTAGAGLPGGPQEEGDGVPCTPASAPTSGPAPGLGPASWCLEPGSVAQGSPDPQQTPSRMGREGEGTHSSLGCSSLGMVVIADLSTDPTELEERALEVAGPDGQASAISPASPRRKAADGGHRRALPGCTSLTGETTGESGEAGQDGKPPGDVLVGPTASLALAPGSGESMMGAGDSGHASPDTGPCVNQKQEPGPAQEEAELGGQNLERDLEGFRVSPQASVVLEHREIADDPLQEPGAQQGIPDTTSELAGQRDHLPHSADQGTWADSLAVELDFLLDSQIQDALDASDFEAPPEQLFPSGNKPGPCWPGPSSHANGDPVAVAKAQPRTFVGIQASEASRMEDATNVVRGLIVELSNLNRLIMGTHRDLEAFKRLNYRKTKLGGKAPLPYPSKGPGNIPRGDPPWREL
UniProt P98077: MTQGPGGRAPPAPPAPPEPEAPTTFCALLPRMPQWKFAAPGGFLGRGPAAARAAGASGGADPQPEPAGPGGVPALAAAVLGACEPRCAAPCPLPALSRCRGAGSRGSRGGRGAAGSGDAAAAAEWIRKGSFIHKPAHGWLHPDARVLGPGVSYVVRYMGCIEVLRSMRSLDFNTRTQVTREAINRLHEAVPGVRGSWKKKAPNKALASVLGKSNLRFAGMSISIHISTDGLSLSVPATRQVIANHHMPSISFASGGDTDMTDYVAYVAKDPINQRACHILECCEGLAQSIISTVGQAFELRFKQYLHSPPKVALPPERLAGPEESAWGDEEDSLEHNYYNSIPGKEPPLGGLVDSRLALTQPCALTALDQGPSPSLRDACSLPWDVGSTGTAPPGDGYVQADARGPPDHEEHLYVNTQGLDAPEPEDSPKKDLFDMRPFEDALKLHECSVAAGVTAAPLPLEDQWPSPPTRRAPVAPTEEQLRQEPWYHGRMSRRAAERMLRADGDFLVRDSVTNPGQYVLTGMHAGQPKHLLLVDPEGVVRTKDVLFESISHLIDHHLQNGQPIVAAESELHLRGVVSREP
UniProt Q00597: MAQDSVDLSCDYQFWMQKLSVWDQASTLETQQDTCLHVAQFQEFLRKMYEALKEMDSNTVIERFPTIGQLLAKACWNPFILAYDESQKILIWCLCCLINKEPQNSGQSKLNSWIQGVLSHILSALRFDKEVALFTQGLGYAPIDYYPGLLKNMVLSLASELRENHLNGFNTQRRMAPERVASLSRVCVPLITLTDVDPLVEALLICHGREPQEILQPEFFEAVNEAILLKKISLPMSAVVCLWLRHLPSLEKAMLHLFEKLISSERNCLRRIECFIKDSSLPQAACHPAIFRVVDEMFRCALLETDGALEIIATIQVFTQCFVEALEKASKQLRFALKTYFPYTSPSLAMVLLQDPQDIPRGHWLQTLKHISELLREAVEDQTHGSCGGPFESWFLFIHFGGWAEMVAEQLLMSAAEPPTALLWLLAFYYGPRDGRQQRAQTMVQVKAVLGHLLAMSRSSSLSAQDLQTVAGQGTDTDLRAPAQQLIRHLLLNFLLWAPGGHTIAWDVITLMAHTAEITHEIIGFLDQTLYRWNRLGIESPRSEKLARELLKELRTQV
UniProt Q12972: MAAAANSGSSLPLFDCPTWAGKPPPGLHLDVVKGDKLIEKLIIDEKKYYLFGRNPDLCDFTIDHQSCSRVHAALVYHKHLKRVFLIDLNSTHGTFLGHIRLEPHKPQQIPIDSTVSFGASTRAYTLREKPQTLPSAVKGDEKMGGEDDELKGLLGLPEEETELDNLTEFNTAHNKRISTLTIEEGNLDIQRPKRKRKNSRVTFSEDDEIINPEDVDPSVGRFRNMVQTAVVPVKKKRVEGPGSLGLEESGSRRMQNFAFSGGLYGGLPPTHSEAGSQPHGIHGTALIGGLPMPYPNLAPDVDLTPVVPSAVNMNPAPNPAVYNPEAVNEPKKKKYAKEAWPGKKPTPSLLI
UniProt Q00610: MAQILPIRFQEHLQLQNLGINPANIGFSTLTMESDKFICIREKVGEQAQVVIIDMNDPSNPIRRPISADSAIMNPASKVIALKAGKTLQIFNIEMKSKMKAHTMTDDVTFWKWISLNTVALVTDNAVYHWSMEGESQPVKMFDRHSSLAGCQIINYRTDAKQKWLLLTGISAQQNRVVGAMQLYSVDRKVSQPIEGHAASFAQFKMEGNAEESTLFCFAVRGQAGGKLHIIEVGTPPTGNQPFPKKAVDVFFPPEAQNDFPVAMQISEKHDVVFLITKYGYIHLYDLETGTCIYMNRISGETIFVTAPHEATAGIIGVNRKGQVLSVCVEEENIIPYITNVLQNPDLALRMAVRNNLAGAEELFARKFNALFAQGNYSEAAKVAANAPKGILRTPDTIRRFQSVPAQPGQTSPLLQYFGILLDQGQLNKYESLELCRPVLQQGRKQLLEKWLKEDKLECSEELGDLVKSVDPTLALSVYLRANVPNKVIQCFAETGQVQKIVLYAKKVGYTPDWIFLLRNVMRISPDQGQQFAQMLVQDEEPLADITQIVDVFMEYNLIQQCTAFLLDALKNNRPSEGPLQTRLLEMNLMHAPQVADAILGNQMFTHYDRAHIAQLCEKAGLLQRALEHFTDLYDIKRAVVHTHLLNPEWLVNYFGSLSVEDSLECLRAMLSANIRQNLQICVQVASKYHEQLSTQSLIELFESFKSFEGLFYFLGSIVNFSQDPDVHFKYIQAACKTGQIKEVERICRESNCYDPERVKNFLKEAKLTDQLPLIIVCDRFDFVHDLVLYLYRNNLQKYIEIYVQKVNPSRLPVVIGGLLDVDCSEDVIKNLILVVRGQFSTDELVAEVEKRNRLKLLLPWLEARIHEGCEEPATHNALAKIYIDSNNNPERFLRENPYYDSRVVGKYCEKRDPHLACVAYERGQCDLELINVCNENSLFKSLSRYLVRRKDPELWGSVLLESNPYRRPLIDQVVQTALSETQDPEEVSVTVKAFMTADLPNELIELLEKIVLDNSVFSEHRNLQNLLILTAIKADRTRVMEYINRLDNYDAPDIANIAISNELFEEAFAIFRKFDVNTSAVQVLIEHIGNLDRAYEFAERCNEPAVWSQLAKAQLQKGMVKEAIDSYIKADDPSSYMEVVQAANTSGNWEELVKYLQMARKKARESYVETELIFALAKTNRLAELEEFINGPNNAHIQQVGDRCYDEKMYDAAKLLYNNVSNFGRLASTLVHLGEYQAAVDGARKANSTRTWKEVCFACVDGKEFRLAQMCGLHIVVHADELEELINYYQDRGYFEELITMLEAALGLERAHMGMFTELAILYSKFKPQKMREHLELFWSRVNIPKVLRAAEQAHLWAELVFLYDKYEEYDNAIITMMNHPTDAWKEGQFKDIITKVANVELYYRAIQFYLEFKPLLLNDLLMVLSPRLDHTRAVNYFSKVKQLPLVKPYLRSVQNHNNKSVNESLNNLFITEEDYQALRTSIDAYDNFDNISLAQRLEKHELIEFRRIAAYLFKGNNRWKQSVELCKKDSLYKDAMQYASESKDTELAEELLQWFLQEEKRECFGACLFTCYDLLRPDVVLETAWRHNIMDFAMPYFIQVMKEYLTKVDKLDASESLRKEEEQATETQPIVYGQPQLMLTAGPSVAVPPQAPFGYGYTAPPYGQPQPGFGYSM

The other results are listed elsewhere or left out. Most entries show no effect beyond the scatter of the controls.

Compound in the assay: Cc1nc(Nc2ncc(C(=O)Nc3c(C)cccc3Cl)s2)cc(N2CCN(CCO)CC2)n1 [dasatinib]
As to the kind of experiment: log2 fold change of tryptic peptide abundance, ligand vs vehicle (limited proteolysis) (log2 ratio); higher = more trypsin-susceptible (destabilized). The following applies: ligand concentration: 5 uM; sample: K562 cleared lysate.
For “UniProt P84022 (peptide sequence: KGEQNGQEEKWCEK, peptide start residue: 20)”, the log2 fold change was 0.22.

As to “C19orf57 (peptide sequence: VSPQASVVLEHR, peptide start residue: 475) (UniProt Q0VDD7)”, the log2 fold change was -0.756.

Regarding “UniProt P98077 (peptide sequence: HLLLVDPEGVVR, peptide start residue: 532)”, the log2 fold change was 0.0977.

Take “FANCC (peptide sequence: ENHLNGFNTQR, peptide start residue: 163) (UniProt Q00597)”: the log2 fold change was -0.0931.

Consider “PPP1R8 (peptide sequence: RVEGPGSLGLEESGSRR, peptide start residue: 237) (UniProt Q12972)”, for which the log2 fold change is 0.152.

“UniProt P83881 (peptide sequence: QSGYGGQTKPIFRK, peptide start residue: 45)”: the log2 fold change is -0.0975.

Take “UniProt P83731 (peptide sequence: TAMAAAKAPTK, peptide start residue: 125)”: the log2 fold change is -0.214.

As to “CLTC (peptide sequence: NNRPSEGPLQTR, peptide start residue: 572) (UniProt Q00610)”, the log2 fold change is -0.326.
